# Data source: PubChem BioAssay AID1224830 (NIAID, 2016)
# Screen: 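Regulators of TLR4 signalling towards TNF-alpha in macrophage-like cells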 (primary screen)
# Cell system: human THP-1 monocytic leukaemia cells, TNF dual-luciferase reporter clone, PMA-differentiated to macrophage-like cells
# Reagent: siRNA pool against human genes, 50 nM
# Timing: LPS for 4 h, given about 3 days after siRNA transfection
# Challenge: bacterial LPS (TLR4 ligand), 10 ng/ml
# Measurement: 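TNF firefly reporter luminescence divided by renilla, normalised to the plate median, then turned into a robust z-score for each replicate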
# Direction: TNF reporter robust z-score: higher = stronger TNF reporter response to LPS
# Rule for the call: 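Each well counts as active if its z-score is over 2.8 or under -1.5; controls are left without a call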
# Here is one part, drawn at random, of about 18,000 reagents. Of all reagents, about 2,900 (16%) are marked active. 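Calls are made per well; low scores hint the gene aids the LPS response, high scores that it dampens it.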 Repeated entries: four replicate wells of each siRNA pool.
gene,TNF reporter robust z-score,Outcome
SCFD1,0.78,inactive
SCFD1,0.6,inactive
SCFD1,-0.23,inactive
SCFD1,0.83,inactive
KDM6A,-0.68,inactive
KDM6A,0.1,inactive
KDM6A,-0.64,inactive
KDM6A,-0.42,inactive
TRIM3,-0.23,inactive
TRIM3,1.38,inactive
TRIM3,-0.07,inactive
TRIM3,-0.57,inactive
FTL,1.75,inactive
FTL,-0.66,inactive
FTL,-0.44,inactive
FTL,0.87,inactive
HSD17B10,1.32,inactive
HSD17B10,1.29,inactive
HSD17B10,1.11,inactive
HSD17B10,0.85,inactive
CXCL2,-1.5,inactive
CXCL2,-0.85,inactive
CXCL2,-0.51,inactive
CXCL2,-0.57,inactive
PDGFRA,-0.9,inactive
PDGFRA,-0.89,inactive
PDGFRA,-0.24,inactive
PDGFRA,-1.18,inactive
VIT,1.91,inactive
VIT,1.8,inactive
VIT,2.07,inactive
VIT,2.28,inactive
NXPH2,-0.9,inactive
NXPH2,-0.3,inactive
NXPH2,0.05,inactive
NXPH2,0.27,inactive
NLGN3,-0.18,inactive
NLGN3,2.32,inactive
NLGN3,0.2,inactive
NLGN3,0.54,inactive
MAP7D1,0.72,inactive
MAP7D1,-0.56,inactive
MAP7D1,0.03,inactive
MAP7D1,0.5,inactive
VEZF1,0.07,inactive
VEZF1,0.92,inactive
VEZF1,-0.06,inactive
VEZF1,2.62,inactive
TIGD3,1.31,inactive
TIGD3,2.87,active
TIGD3,4.17,active
TIGD3,0.02,inactive
CKMT1B,0.51,inactive
CKMT1B,0.68,inactive
CKMT1B,0.61,inactive
CKMT1B,0.79,inactive
ENTPD8,1.85,inactive
ENTPD8,3.1,active
ENTPD8,2.25,inactive
ENTPD8,2.77,inactive
PBX1,0.18,inactive
PBX1,1.38,inactive
PBX1,2.68,inactive
PBX1,-0.94,inactive
GBX2,0.87,inactive
GBX2,0.52,inactive
GBX2,0.16,inactive
GBX2,0.01,inactive
SECISBP2L,,inactive
SECISBP2L,0.46,inactive
SECISBP2L,0.29,inactive
SECISBP2L,-0.02,inactive
PDE8A,0.06,inactive
PDE8A,3.11,active
PDE8A,0.25,inactive
PDE8A,2.91,active

A run of entries of the results above, as a working copy:
gene,TNF reporter robust z-score,Outcome
ENTPD8,1.85,inactive
ENTPD8,3.1,active
ENTPD8,2.25,inactive
ENTPD8,2.77,inactive
PBX1,0.18,inactive
PBX1,1.38,inactive
PBX1,2.68,inactive
PBX1,-0.94,inactive
GBX2,0.87,inactive
GBX2,0.52,inactive
GBX2,0.16,inactive
GBX2,0.01,inactive
SECISBP2L,,inactive
